According to publication PMC11705064:
Results are given in words; binding and its absence hold for the method and conditions named. In cells and extracts the contact can be indirect. Some binding calls cover weakened binding; strength is not graded here. Sequences can lack the tags named with a protein.

Target: epidermal growth factor receptor (EGFR) (human (endogenous in HCT-116 and DLD-1)) (UniProt P00533)
Assay: co-IP; lysates of HCT-116 and DLD-1 cells; indicated antibodies and IgG agarose overnight at 4 °C; washed thrice; immunoblotting

B1: solute carrier family 5 (sodium/glucose cotransporter), member 1 (SLC5A1) (protein, UniProt P13866 1-664)
chain: MDSSTWSPKTTAVTRPVETHELIRNAADISIIVIYFVVVMAVGLWAMFSTNRGTVGGFFLAGRSMVWWPIGASLFASNIGSGHFVGLAGTGAASGIAIGGFEWNALVLVVVLGWLFVPIYIKAGVVTMPEYLRKRFGGQRIQVYLSLLSLLLYIFTKISADIFSGAIFINLALGLNLYLAIFLLLAITALYTITGGLAAVIYTDTLQTVIMLVGSLILTGFAFHEVGGYDAFMEKYMKAIPTIVSDGNTTFQEKCYTPRADSFHIFRDPLTGDLPWPGFIFGMSILTLWYWCTDQVIVQRCLSAKNMSHVKGGCILCGYLKLMPMFIMVMPGMISRILYTEKIACVVPSECEKYCGTKVGCTNIAYPTLVVELMPNGLRGLMLSVMLASLMSSLTSIFNSASTLFTMDIYAKVRKRASEKELMIAGRLFILVLIGISIAWVPIVQSAQSGQLFDYIQSITSYLGPPIAAVFLLAIFWKRVNEPGAFWGLILGLLIGISRMITEFAYGTGSCMEPSNCPTIICGVHYLYFAIILFAISFITIVVISLLTKPIPDVHLYRLCWSLRNSKEERIDLDAEEENIQEGPKETIEIETQVPEKKKGIFRRAYDLFCGLEQHGAPKMTEEEEKAMKMKMTDTSEKPLWRTVLNVNGIILVTVAVFCHAYFA
binding: binds
